Laboratory results published in article doi:10.1101/2023.03.20.533423 (bioRxiv, 2023).
No constants are given. Whether binding was seen depends on the method and setting. For part of these data: Binding seen in cells or lysates may run through a third protein. Some results given as binding are weak or reduced against the parent protein; the word gives no strength. For part of these data: Where a sequence is shown, tags or fusion partners need not be part of it.

The chains behind the UniProt entries cited, without tags or fusion partners.
UniProt O33208: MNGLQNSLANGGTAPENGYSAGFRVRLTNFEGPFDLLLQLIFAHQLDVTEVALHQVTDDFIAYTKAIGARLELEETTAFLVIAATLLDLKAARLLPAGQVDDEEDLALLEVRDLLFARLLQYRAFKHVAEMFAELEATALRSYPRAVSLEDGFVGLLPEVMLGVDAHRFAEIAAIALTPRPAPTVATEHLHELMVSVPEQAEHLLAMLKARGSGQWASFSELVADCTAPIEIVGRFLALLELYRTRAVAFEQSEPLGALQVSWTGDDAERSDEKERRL

B1: M. tb ParB (MPFC prey, cloned in pUAB300) (protein, UniProt P9WIJ9 1-344)
chain: MTQPSRRKGGLGRGLAALIPTGPADGESGPPTLGPRMGSATADVVIGGPVPDTSVMGAIYREIPPSAIEANPRQPRQVFDEEALAELVHSIREFGLLQPIVVRSLAGSQTGVRYQIVMGERRWRAAQEAGLATIPAIVRETGDDNLLRDALLENIHRVQLNPLEEAAAYQQLLDEFGVTHDELAARIGRSRPLITNMIRLLKLPIPVQRRVAAGVLSAGHARALLSLEAGPEAQEELASRIVAEGLSVRATEETVTLANHEANRQAHHSDATTPAPPRRKPIQMPGLQDVAERLSTTFDTRVTVSLGKRKGKIVVEFGSVDDLARIVGLMTTDGRDKGLHRDAL

Key:
[1] = target: T1, GST-Rv1708 (M. tuberculosis) (UniProt P9WLT1); experiment: pull-down
T1 sequence: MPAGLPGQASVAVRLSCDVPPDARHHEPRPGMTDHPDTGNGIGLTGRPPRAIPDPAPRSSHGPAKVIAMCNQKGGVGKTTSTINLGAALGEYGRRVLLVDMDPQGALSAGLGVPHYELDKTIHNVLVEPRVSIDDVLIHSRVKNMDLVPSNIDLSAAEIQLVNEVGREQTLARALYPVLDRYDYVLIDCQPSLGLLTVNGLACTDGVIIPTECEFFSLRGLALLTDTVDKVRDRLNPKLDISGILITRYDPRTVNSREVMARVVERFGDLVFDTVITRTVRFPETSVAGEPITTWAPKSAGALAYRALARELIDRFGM

[2] = target: T2, Rv1708 (MPFC bait, cloned in pUAB400) (M. tuberculosis) (UniProt P9WLT1); experiment: split reporter
T2 sequence: T1 sequence

Molecule	binding [1]	binding [2]
M. tb ScpA with C-terminal 6xHis-tag (from UniProt O33208 1-278)	binds	–
M. tb ScpA (MPFC prey, cloned in pUAB300) (from UniProt O33208 1-278)	–	binds
B1	–	binds
